Laboratory results taken from the supplement of paper PMC10849652.
The other results are listed elsewhere or left out.

By UniProt entry, the sequences of proteins in these tests, tags left out. Where a name states a change or a piece, a line headed by the entry shows the natural chain unless it says otherwise.
UniProt Q8TAV0: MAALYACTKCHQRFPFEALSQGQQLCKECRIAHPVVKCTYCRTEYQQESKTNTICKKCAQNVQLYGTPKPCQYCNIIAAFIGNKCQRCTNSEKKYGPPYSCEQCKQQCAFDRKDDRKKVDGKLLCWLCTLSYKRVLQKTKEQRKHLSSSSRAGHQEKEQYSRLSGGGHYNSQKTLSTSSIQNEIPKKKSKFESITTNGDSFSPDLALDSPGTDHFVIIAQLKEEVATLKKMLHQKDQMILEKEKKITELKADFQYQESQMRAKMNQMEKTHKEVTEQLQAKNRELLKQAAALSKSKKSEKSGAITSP
UniProt Q13868, whole entry, looked up: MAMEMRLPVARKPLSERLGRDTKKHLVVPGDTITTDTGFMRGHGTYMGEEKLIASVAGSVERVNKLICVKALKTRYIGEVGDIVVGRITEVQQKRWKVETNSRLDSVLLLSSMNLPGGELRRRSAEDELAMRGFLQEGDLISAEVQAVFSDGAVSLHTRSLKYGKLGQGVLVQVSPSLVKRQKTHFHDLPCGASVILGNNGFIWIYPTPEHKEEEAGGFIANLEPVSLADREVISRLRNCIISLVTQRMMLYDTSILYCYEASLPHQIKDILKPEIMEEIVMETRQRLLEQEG
UniProt Q96KP1: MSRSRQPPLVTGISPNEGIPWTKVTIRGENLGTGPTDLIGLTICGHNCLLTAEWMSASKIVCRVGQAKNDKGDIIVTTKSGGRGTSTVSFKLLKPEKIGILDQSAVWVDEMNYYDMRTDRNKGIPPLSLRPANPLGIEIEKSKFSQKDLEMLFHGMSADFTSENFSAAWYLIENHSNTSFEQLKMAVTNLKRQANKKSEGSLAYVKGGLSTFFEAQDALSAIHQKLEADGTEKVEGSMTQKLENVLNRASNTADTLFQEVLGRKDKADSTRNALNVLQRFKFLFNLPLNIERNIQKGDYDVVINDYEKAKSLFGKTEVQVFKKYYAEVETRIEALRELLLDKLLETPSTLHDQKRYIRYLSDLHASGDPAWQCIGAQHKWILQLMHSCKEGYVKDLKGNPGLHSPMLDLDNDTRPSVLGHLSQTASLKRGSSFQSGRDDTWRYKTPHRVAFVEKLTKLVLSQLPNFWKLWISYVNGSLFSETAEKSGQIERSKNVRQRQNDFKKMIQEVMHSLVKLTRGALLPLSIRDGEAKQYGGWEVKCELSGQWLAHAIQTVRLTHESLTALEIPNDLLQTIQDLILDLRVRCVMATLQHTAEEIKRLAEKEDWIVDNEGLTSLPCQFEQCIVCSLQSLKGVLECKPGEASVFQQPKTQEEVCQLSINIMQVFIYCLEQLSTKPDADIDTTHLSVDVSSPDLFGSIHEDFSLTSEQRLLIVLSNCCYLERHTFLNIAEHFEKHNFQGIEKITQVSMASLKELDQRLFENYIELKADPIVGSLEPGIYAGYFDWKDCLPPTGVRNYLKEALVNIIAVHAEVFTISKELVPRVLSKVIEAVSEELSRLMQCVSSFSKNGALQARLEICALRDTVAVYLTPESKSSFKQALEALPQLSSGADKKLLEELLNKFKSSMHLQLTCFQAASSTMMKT
UniProt Q9UI08, whole entry, looked up: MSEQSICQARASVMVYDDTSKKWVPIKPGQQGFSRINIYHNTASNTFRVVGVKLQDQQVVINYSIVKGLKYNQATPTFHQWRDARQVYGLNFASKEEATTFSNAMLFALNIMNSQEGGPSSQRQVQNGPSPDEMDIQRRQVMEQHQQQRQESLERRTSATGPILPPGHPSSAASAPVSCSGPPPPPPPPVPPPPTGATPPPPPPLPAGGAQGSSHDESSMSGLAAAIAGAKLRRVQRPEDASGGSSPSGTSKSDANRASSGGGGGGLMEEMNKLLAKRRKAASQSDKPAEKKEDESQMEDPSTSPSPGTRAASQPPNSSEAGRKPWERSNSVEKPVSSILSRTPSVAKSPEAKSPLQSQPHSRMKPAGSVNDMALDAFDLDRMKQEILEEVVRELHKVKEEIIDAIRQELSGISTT
UniProt Q5W0V3: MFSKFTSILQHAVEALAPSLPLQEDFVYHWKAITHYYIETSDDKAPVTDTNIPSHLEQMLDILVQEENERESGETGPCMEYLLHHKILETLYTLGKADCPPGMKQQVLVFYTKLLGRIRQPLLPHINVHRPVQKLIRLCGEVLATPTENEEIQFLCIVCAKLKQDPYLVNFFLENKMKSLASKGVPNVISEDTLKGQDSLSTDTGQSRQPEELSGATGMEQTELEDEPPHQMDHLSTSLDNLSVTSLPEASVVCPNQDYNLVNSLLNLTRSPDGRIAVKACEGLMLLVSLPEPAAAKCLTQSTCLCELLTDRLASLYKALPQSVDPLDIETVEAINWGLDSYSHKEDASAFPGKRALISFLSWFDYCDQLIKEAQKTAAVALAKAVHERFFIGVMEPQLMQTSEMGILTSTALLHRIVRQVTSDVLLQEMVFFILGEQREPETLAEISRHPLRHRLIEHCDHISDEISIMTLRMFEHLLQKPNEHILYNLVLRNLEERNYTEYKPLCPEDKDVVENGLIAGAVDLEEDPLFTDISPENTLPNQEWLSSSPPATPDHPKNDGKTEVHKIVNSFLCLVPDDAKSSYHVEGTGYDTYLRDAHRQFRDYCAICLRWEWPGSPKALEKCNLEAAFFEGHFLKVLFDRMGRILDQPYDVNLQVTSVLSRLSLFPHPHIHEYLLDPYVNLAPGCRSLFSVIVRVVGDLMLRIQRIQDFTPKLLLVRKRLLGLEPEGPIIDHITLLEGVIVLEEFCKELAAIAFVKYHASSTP
UniProt Q5JUQ0: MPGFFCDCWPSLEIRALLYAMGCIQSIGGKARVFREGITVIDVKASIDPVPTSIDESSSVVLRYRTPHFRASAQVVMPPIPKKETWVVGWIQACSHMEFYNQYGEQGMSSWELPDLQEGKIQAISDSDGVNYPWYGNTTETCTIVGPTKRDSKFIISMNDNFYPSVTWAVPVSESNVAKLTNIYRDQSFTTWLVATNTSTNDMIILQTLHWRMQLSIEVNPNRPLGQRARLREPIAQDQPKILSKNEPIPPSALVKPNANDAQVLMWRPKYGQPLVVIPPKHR
UniProt Q9C073: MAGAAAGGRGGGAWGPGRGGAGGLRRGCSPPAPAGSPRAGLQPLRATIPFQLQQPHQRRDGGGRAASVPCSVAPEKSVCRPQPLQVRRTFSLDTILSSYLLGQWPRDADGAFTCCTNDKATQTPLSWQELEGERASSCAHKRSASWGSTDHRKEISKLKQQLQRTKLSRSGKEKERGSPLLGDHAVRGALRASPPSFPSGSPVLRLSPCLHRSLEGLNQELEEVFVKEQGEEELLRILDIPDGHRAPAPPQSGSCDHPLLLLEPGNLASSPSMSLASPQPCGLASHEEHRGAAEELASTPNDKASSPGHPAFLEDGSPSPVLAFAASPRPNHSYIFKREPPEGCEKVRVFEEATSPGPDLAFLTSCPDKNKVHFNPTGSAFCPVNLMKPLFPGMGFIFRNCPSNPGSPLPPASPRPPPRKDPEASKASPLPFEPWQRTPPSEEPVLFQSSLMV
UniProt Q9HBU6: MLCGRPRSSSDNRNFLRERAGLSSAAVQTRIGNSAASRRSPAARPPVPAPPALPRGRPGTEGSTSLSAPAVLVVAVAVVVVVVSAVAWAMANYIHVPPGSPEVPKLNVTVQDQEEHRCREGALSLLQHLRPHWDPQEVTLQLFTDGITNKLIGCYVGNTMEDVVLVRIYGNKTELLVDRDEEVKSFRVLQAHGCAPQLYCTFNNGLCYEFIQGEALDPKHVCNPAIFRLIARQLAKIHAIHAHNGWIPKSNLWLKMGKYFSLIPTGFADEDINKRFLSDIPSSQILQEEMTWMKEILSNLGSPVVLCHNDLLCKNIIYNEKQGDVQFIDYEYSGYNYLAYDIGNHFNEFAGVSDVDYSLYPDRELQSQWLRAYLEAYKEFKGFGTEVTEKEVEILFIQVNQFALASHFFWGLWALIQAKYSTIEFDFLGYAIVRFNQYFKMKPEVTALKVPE
UniProt Q14674: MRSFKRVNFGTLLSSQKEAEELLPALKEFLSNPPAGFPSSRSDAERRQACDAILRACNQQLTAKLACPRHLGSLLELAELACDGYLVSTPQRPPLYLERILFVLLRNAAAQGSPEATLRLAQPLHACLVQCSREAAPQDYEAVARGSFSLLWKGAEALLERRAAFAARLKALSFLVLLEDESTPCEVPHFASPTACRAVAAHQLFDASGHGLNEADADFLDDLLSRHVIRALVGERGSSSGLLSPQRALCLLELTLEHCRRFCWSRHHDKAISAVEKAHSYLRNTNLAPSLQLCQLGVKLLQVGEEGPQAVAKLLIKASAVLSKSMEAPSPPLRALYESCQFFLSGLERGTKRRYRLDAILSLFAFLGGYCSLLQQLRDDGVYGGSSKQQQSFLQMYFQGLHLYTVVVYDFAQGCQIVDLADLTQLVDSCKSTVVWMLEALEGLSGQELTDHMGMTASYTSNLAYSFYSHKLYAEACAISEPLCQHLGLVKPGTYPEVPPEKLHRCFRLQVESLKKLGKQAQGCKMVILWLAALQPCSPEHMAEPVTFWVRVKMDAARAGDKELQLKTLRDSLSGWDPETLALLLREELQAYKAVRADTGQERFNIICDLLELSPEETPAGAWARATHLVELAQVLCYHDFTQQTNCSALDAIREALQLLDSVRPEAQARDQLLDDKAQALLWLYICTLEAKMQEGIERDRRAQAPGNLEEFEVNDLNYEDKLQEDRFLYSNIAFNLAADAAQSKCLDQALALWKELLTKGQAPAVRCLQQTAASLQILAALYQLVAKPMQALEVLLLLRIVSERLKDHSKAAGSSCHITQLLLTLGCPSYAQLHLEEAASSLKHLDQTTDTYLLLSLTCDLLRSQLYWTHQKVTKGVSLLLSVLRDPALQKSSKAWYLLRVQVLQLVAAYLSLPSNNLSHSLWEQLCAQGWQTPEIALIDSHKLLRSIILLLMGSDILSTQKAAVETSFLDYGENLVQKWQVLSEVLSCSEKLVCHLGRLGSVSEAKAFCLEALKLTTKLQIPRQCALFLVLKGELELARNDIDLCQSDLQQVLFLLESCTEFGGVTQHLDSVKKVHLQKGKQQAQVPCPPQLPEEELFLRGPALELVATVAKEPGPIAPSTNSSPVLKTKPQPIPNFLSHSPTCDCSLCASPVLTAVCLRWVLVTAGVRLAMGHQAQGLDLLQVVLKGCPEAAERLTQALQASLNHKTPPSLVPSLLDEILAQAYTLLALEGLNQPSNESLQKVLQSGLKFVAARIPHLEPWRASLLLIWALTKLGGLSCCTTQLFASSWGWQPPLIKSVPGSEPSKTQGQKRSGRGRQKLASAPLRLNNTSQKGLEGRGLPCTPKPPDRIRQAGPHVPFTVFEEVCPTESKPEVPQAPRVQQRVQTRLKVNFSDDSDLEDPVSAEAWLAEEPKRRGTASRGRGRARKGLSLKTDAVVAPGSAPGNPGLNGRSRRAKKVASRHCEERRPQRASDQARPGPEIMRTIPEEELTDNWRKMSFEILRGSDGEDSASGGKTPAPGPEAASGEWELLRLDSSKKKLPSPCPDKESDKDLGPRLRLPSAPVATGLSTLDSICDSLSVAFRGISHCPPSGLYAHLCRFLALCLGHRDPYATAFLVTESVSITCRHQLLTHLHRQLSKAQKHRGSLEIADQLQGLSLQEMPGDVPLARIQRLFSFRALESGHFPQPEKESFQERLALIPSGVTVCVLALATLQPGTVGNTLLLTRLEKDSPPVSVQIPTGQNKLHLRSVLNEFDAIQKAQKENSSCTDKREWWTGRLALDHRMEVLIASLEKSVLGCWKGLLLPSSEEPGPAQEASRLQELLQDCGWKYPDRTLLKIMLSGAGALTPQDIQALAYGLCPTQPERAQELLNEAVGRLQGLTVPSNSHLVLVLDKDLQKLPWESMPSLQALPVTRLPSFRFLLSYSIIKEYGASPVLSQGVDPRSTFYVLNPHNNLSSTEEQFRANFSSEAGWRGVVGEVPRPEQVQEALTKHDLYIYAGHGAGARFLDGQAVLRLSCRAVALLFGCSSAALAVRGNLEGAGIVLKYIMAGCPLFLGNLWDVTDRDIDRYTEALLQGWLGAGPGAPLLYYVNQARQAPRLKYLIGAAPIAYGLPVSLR
UniProt Q9BPY3: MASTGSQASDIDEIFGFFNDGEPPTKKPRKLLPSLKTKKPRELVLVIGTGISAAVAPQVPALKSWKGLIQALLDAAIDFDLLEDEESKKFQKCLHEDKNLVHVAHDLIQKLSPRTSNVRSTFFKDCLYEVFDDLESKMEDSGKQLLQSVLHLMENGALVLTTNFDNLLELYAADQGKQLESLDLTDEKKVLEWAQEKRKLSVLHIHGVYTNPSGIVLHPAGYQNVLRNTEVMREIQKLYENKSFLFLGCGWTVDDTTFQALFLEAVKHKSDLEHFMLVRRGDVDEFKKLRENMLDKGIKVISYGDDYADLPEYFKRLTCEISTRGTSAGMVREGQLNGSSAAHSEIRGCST
UniProt P98173: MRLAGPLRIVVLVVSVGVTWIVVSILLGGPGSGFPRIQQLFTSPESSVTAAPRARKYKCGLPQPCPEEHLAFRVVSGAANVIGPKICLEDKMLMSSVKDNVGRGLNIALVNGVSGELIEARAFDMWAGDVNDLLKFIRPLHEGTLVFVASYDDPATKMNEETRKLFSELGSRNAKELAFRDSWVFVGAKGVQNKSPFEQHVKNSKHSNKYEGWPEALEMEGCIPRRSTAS

What follows are targets tested with c1ccc([C@@H]2C[C@H]2NC2CCNCC2)cc1 (assay: log2 fold change, soluble protein after heating vs DMSO (PISA); higher = thermal stabilisation; K562 lysate, 10 uM; active = over 0.2 and 3.5 SD of the protein, either way, in both replicates (recomputed)).
How it was run: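 Pellets of K562 cells were dounce-homogenised in PBS pH 7.4 with 1 mM MgCl2, and the crude extract was held at 1 mg/mL protein for a 30 min treatment with 10 μM compound. Aliquots were heated for 3 min over 48°C-58°C and pooled before NP-40 was added to 0.5% at 4°C. The supernatant from 21,000xg for 90 min was quantified by TMTpro 16plex LC-MS/MS with channel sums equalised. Values are reported from duplicates as log-two fold change in thermal stability relative to solvent controls.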
FAM76A isoform 3 (UniProt Q8TAV0) was tested, and the log2 fold change was inactive: 0.019.
For EXOSC2 (UniProt Q13868), the log2 fold change was inactive: -0.026.
With EXOC8 (UniProt Q8IYI6) the log2 fold change was inactive: 0.037.
EXOC2 (UniProt Q96KP1) was tested, and the log2 fold change was inactive: 0.063.
In the case of FAM49B (UniProt Q9NUQ9), the log2 fold change is reported as inactive: 0.024.
With ERICH1 (UniProt Q86X53) the log2 fold change was inactive: -0.014.
In the case of EXOC6 (UniProt Q8TAG9), the log2 fold change is reported as inactive: 0.151.
For FAM114A1 (UniProt Q8IWE2), the log2 fold change was inactive: -0.063.
With ESS2 (UniProt Q96DF8) the log2 fold change was inactive: -0.045.
In the case of FAM32A (UniProt Q9Y421), the log2 fold change is reported as inactive: -0.035.
With EZH2 isoform 2 (UniProt Q15910) the log2 fold change was inactive: 0.163.
In the case of EXOG (UniProt Q9Y2C4), the log2 fold change is reported as inactive: -0.025.
For EXOC4 (UniProt Q96A65), the log2 fold change was inactive: 0.054.
FAM210A (UniProt Q96ND0) was tested, and the log2 fold change was inactive: -0.042.
For EXOSC8 (UniProt Q96B26), the log2 fold change was inactive: -0.01.
With ESF1 (UniProt Q9H501) the log2 fold change was inactive: -0.027.
With EVL isoform 2 (UniProt Q9UI08) the log2 fold change was inactive: -0.01.
For FAM160B1 (UniProt Q5W0V3), the log2 fold change was inactive: -0.012.
For FAM78A (UniProt Q5JUQ0), the log2 fold change was inactive: -0.089.
For FAM120B (UniProt Q96EK7), the log2 fold change was inactive: 0.035.
FAM117A (UniProt Q9C073) was tested, and the log2 fold change was inactive: 0.046.
For FAM160A2 isoform 2 (UniProt Q8N612), the log2 fold change was inactive: -0.007.
With ETNK1 (UniProt Q9HBU6) the log2 fold change was inactive: -0.033.
For ESYT1 isoform 2 (UniProt Q9BSJ8), the log2 fold change was inactive: 0.03.
ESPL1 (UniProt Q14674) was tested, and the log2 fold change was inactive: 0.077.
For FADD (UniProt Q13158), the log2 fold change was inactive: -0.022.
For FAM118B (UniProt Q9BPY3), the log2 fold change was inactive: 0.01.
For FAF2 (UniProt Q96CS3), the log2 fold change was inactive: -0.059.
With FAHD2B (UniProt Q6P2I3) the log2 fold change was inactive: 0.004.
With FAM3A (UniProt P98173) the log2 fold change was inactive: 0.035.
In the case of FAM126B (UniProt Q8IXS8), the log2 fold change is reported as inactive: -0.111.
In the case of FAM136A (UniProt Q96C01), the log2 fold change is reported as inactive: -0.002.
